From PubChem BioAssay AID1671190 (National Center for Advancing Translational Sciences (NCATS), 2021)
“And” between values parts separate entries of the source, which are not always exact repeats. Identical values can stand only once. The campaign covered roughly 580,000 compounds. About 6,100 (1.1%) were called active. The shares of active, inactive and inconclusive entries below differ from those in the screen. Calls follow the shape of the dose curve; as a rule, active = well fitted inhibition curve with a large enough effect; inconclusive = small, poorly fitted or top-dose-only effect, or another doubt; inactive = no such curve, though single readings can be large or run the other way. Potencies beside an inconclusive call are fits to weak or partial responses and may not hold up.

The chains behind the UniProt entries cited, without tags or fusion partners. Where a name states a change or a piece, a line headed by the entry shows the natural chain unless it says otherwise.
UniProt P18054: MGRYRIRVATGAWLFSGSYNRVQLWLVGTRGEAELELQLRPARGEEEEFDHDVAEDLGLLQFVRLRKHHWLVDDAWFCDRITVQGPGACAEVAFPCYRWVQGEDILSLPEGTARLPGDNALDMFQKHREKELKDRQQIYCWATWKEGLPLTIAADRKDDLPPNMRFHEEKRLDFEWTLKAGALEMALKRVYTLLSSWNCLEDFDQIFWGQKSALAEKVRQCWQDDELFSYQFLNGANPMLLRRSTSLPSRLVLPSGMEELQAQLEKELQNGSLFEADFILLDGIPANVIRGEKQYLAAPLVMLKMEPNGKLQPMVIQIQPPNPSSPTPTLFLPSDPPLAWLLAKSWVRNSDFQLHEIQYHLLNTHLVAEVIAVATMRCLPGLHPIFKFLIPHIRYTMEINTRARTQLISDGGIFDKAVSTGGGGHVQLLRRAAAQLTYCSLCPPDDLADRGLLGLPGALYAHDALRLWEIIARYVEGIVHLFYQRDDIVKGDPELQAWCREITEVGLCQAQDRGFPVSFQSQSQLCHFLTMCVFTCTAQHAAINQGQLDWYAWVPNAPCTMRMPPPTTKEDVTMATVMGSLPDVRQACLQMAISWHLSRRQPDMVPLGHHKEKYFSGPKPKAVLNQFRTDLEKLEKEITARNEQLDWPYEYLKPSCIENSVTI

Biological target: Polyunsaturated fatty acid lipoxygenase ALOX12 (Homo sapiens) (UniProt P18054)
Test: Primary qHTS assay for inhibitors of human arachidonate 12S-lipoxygenase (ALOX12): Round 2
Conditions: purified 12hLO, xylenol orange hydroperoxide absorbance; series mostly up to 108 µM
Method in brief: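 Hydroperoxide product was detected by ferrous iron/xylenol orange as the 573 to 405 nm absorbance ratio. Arachidonic acid at 40 uM (final) was turned over for 30 min at room temperature by 150 nM human 12hLO, pH 7.0 Hepes buffer, after 15 min compound preincubation.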
Potency is read from the fitted curve at half-maximal effect.

| Compound | Potency |
| --- | --- |
| CCCCn1c(=O)n(Cc2cccc(F)c2)c(=O)c2c1ncn2Cc1ccco1 | inconclusive: 20 µM [inhibitor, partial curve, poor fit] and inconclusive: 50.1 µM [inhibitor, partial curve, poor fit] |
| CNC(=O)CCC[C@@H]1[C@H]2CCCN3CCC[C@@H](CN1C(=O)NCCc1ccccc1)[C@@H]23 | inactive |
| CC(=O)OCCN(Cc1ccccc1)Cc1ccc2c(c1)OCO2 | inconclusive: 50.1 µM [inhibitor, partial curve] |
| O=C1CC(NS(=O)(=O)c2ccc3ccccc3c2)CN1c1ccccc1 (stereo not drawn) | inconclusive: 31.6 µM [inhibitor, full curve, poor fit] |
| CC1CCc2[nH]c3ccc(C(=O)Nc4ccc(F)cc4)cc3c2C1 (stereo not drawn) | inactive |
| C=CCNC(=O)C1CC(=O)N(c2ccc(OCc3ccccc3Cl)cc2)C1 (stereo not drawn) | inconclusive: 100 µM [inhibitor, single point] |
| CC(NC(=O)c1ccccc1NC(=O)c1nsc2ccccc12)c1ccccc1 (stereo not drawn) | inactive |
| Cc1ccc(C(C)(C)C)c(OCCN2CCCC2)c1 | inconclusive: 0.199 µM [inhibitor, full curve, poor fit] |
| COc1ccc(C(CNC(=O)CNC(C)(C)C)c2c[nH]c3ccccc23)cc1 (stereo not drawn) | inactive |
| CCCCCCCCCCS(=O)(=O)N/N=C/c1ccc(O)cc1 | inconclusive: 79.4 µM [inhibitor, partial curve, poor fit] |
| CCOc1ccc(C(=O)N2CCCN(c3cc(-c4ccc(Cl)cc4)[nH]n3)CC2)cc1OCC | inactive |
| COc1ccc(CN2CCCC3(C2)NC(=O)c2ccccc2O3)cc1 (stereo not drawn) | inconclusive: 22.4 µM [inhibitor, full curve] |
| C#CCN1CC(N2CCN(CCO)CC2)CS1(=O)=O (stereo not drawn) | inactive |
| CCC(=O)N1CCC(CC)(N2CCN(S(=O)(=O)c3cccc(C(F)(F)F)c3)CC2)C1 (stereo not drawn) | inconclusive: 11.2 µM [inhibitor, full curve] |
| Cc1ccc(N(CC(=O)NC2CC3CCC2C3)S(C)(=O)=O)cc1C (stereo not drawn) | inconclusive: 44.7 µM [inhibitor, partial curve, poor fit] |
| CC1CCCN(c2ccc(F)cc2N)C1 (stereo not drawn) | inconclusive: 35.5 µM [inhibitor, partial curve, poor fit] |
| CCCNC(=O)C(C)NC(=O)c1cc(C)nc2ccccc12 (stereo not drawn) | inconclusive: 89.1 µM [inhibitor, single point] |
| Cc1ccc(NC(=O)N[C@H]2C[C@@](O)(C(=O)N[C@H]3CCCNC3=O)C[C@@H](O)[C@@H]2O)cc1 | inactive |
